PubChem BioAssay AID2685 (National Center for Advancing Translational Sciences (NCATS), 2010)
The list shows a part of the results. The main result of the screen is listed elsewhere. These columns were measured beside it and carry no call. Compounds called inactive in the main read-out are mostly missing here. Potencies come from curve fits of mixed quality, noted in brackets.

Experiment: qHTS Assay for Lipid Storage Modulators in Drosophila S3 Cells;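 on cell number change: cells counted by Cell Tracker Red CMTPX staining in the red channel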
Settings: BODIPY lipid droplet fluorescence, 18-24 h; for cell number change: measured here: cell count max response, cells fed with added oleic acid
Procedure, shortened: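 Laser-scanning cytometry quantifies lipid droplet accumulation (500–530 nm total intensity; droplet/cell object ratio) in oleic acid-fed (400 uM added) Drosophila S3 cells treated with a concentration series. 20 uM Triacsin C defined 100% inhibition.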

[1] = measured here: cell number channel AC50, cells fed with added oleic acid
[2] = measured here: lipid fluorescence (Fed channel) AC50, cells fed with added oleic acid

Structure (SMILES)	cell number change	AC50 [1]	AC50 [2]
CCCCNC(=S)N(C)/N=C/c1c(C)[nH]c2ccccc12	-24.7%	0.058 µM [falling, full curve]	32.6 µM [falling, single point]
O=S(=O)(c1cccc(-c2cn3ccccc3n2)c1)N1CCCC1	–	–	29.1 µM [rising, single point]
COc1ccc2oc(C(=O)OCC(=O)N3CCN(S(=O)(=O)c4ccc(C)cc4)CC3)c(C)c2c1	93.6%	–	29.1 µM [rising, single point]
O=C(O)C=C1C2CC3CC(C2)CC1C3	-1.43%	–	29.1 µM [rising, single point]
COc1c(C(=O)NCCSC(C)(C)C)ccc2ccccc12	-3.34%	–	1.84 µM [rising, partial curve]
COc1cnc(SCc2ccc(Cl)cc2Cl)nc1Cl	–	–	29.1 µM [falling, single point]
O=C(NNc1ccccn1)C(=O)NNS(=O)(=O)c1ccc(F)cc1	–	0.651 µM [falling, single point]	–
CCN(C(=O)CN1C(=O)c2ccc([N+](=O)[O-])cc2C1=O)C1CCCCC1	25.9%	–	–
CC(Cc1c[nH]c2ccccc12)NC(=O)C1CCCNC1=O (stereo not drawn)	15.9%	–	–
CCN(CC(=O)Nc1cc(Cl)ccc1C)C(=O)CCS(=O)(=O)c1ccc(C)cc1	–	0.0184 µM [rising, full curve, poor fit]	–
O=C(CSc1nc2ccccc2o1)Nc1nc2ccccc2s1	-45.8%	0.326 µM [falling, full curve]	0.259 µM [falling, full curve]
COc1ccc(CCc2nc(-c3cccs3)no2)cc1	-14.6%	–	18.4 µM [falling, single point]
Cc1ccccc1NS(=O)(=O)c1ccc2[nH]cc(C(=O)NCCCN3CCOCC3)c(=O)c2c1	38.5%	23.1 µM [rising, single point]	6.51 µM [rising, single point]
COC(=O)c1ccc(NC(=S)NCCc2ccc(OC)cc2)cc1	103%	29.1 µM [rising, partial curve]	–
Cc1ccc(NC2=C(Cl)C(=O)OC2OC(=O)c2ccccc2C)cc1 (stereo not drawn)	-2.91%	–	–
CCOc1ccc(NC(=O)COC(=O)CC2CCCCC2)cc1	-6.01%	–	7.31 µM [rising, partial curve, poor fit]
CCCCc1ccc(/C=C2\C(=O)ON=C2c2ccccc2)s1	-1.97%	–	–
COC(c1ccccc1)c1nnc(CCC(=O)N(C)Cc2cccc(-n3cccn3)c2)o1 (stereo not drawn)	-18.4%	–	0.0184 µM [falling, full curve, poor fit]
O=C(O)c1ccc(N=Nc2c(O)ccc3ncccc23)cc1	-20.7%	–	2.31 µM [falling, partial curve]
COc1ccc(OC)c(CCNC(=O)c2ccc3c(c2)N(Cc2ccc(F)cc2)CCS3)c1	-31.2%	6.51 µM [falling, single point]	8.2 µM [falling, partial curve]

Structure (SMILES)	cell number change	AC50 [1]	AC50 [2]
COc1ccc(C(C)(C)C)cc1NC(=O)c1ccc[n+]([O-])c1	8.73%	–	6.51 µM [rising, full curve]
CCc1cc(=O)oc2cc(OCC(=O)N3CC[C@@]4(O)CCCC[C@H]4C3)ccc12	-9.14%	–	0.731 µM [falling, full curve]
COc1cc2c(cc1OC)CC(C(=O)NCc1ccccc1)NC2 (stereo not drawn)	24.1%	–	0.092 µM [rising, full curve, poor fit]
FC(F)(F)c1cc(CCN2CCNC[C@H]2Cc2cccc3ccccc23)cc(C(F)(F)F)c1	-85.2%	16.4 µM [falling, partial curve]	20.6 µM [falling, partial curve]
Cc1nc2ccccc2cc1C(=O)N/N=C/c1ccc([N+](=O)[O-])cc1	35.9%	14.6 µM [rising, single point]	14.6 µM [rising, single point]
CCn1c(C)nnc1SCC(=O)Nc1ccc2c(c1)OCCO2	-8.97%	–	–
CC1CC(=O)N(C)c2cc([N+](=O)[O-])ccc2N1 (stereo not drawn)	15.8%	–	6.51 µM [falling, single point]
COc1cccc(C(=O)N(Cc2nc(-c3ccc(C)cc3)no2)C(C)C)c1	23.2%	–	18.4 µM [rising, single point]
O=C1CN(C(=O)/C=C/c2ccco2)c2ccccc2N1	–	0.0259 µM [falling, full curve, poor fit]	0.0731 µM [falling, partial curve, poor fit]
CN1CCN(/N=C/c2ccc(C#N)cc2)CC1	–	4.61 µM [rising, single point]	–
O=C(NC(CO)C(O)c1ccc([N+](=O)[O-])cc1)C(Cl)Cl (stereo not drawn)	-41.5%	–	–
Cc1cc(-c2ccccc2)[nH]c(=O)c1S(=O)(=O)c1ccc(Cl)cc1	-14.9%	–	13 µM [falling, partial curve]
N#Cc1cc([N+](=O)[O-])ccc1NCCN1CCOCC1	133%	–	29.1 µM [rising, single point]
CCCN(CC1CC1)c1nc(N)c2c(N)nc(OC)cc2c1C#N	–	0.231 µM [rising, full curve]	0.411 µM [rising, full curve]
Cc1sc2ncnc(OCC(=O)c3ccc(S(=O)(=O)N4CCCC4)cc3)c2c1C	9.94%	–	20.6 µM [rising, partial curve]
O=C(CSc1n[nH]c(-c2ccncc2)n1)Nc1ccccc1Cl	49%	20.6 µM [rising, single point]	–
COc1cc(F)ccc1S(=O)(=O)N1CCN(Cc2ccccc2)CC1	-2.19%	–	–
c1ccc(-c2nc3nonc3c3nc4ccccc4n23)cc1	-32.7%	32.6 µM [falling, partial curve, poor fit]	–
COc1ccc(-c2cc3nc(C)c(CCC(=O)NC(C)CCc4ccco4)c(C)n3n2)c(OC)c1 (stereo not drawn)	–	2.59 µM [rising, partial curve]	–
CCn1nnnc1SCC(=O)Nc1nnc(C(C)C)s1	–	–	3.66 µM [falling, partial curve]

Among those listed so far, these have a nitro group on carbon:
Structure (SMILES)	cell number change	AC50 [1]	AC50 [2]
CCN(C(=O)CN1C(=O)c2ccc([N+](=O)[O-])cc2C1=O)C1CCCCC1	25.9%	–	–
Cc1nc2ccccc2cc1C(=O)N/N=C/c1ccc([N+](=O)[O-])cc1	35.9%	14.6 µM [rising, single point]	14.6 µM [rising, single point]
CC1CC(=O)N(C)c2cc([N+](=O)[O-])ccc2N1 (stereo not drawn)	15.8%	–	6.51 µM [falling, single point]
O=C(NC(CO)C(O)c1ccc([N+](=O)[O-])cc1)C(Cl)Cl (stereo not drawn)	-41.5%	–	–
N#Cc1cc([N+](=O)[O-])ccc1NCCN1CCOCC1	133%	–	29.1 µM [rising, single point]

Record cards (already shown). Values in the order: cell number change | AC50 [1] | AC50 [2]
CCn1c(C)nnc1SCC(=O)Nc1ccc2c(c1)OCCO2 reads -8.97% | – | –
COc1cc2c(cc1OC)CC(C(=O)NCc1ccccc1)NC2 (stereo not drawn) reads 24.1% | – | 0.092 µM [rising, full curve, poor fit]

Next records:

Structure (SMILES)	cell number change	AC50 [1]	AC50 [2]
Cn1c(=O)n(C)c2cc(NC(=O)c3ccc(F)cc3)c(Br)cc21	-13.8%	–	6.51 µM [falling, single point]
O=C1/C(=C/c2ccc(C(=O)O)cc2)CCC/C1=C\c1ccc(C(=O)O)cc1	-51.3%	29.1 µM [falling, single point]	–
O=C(COC(=O)/C=C/c1ccc([N+](=O)[O-])cc1)NC(c1ccccc1)c1ccccc1	-9.21%	6.51 µM [rising, single point]	18.4 µM [rising, single point]
Nc1ccc(C(=O)Nc2ccc3nc(-c4cccnc4)[nH]c3c2)cc1	-32.4%	32.6 µM [falling, single point]	29.1 µM [falling, single point]
O=C(NCCN1CCN(Cc2ccccc2Cl)CC1)Nc1ccccc1	-54.2%	29.1 µM [falling, single point]	29.1 µM [falling, single point]
CC(=O)N/N=C/c1cc2c(cc1[N+](=O)[O-])OCO2	–	0.164 µM [rising, single point]	0.116 µM [rising, single point]
CCOC(=O)N1CCC(NC(=O)C2CCN(C(=O)N3CC(C)Oc4ccccc43)CC2)CC1 (stereo not drawn)	-2.19%	–	6.51 µM [falling, single point]
O=C(COC(=O)Cc1n[nH]c(=O)c2ccccc12)NNC(=O)c1ccc(Cl)cc1	-6.87%	–	1.84 µM [rising, partial curve, poor fit]
Cc1ccc(-c2nc3ncccc3o2)cc1NC(=O)c1cc2ccccc2o1	13%	–	0.13 µM [rising, full curve, poor fit]
COC(=O)c1ccccc1NC(=O)C(C)c1ccc([N+](=O)[O-])cc1 (stereo not drawn)	16.5%	–	–
Cc1nc2ccccc2nc1OCC(=O)Nc1ccc(F)cc1	10.5%	0.00461 µM [rising, full curve, poor fit]	–
O=[N+]([O-])c1ccc(-c2nc(Nc3ccc(O)cc3)c3ccccc3n2)cc1	-84.2%	23.1 µM [falling, partial curve]	16.4 µM [falling, single point]
Cc1c(C(=O)O)oc2c1ccc1ccccc12	-61.7%	29.1 µM [falling, single point]	–
O=C(Cc1coc2ccc3ccccc3c12)NC1CCCc2ccccc21 (stereo not drawn)	-17.4%	–	18.4 µM [falling, partial curve]
CCn1cc(CNC(=O)C2CCC(=O)N(Cc3ccc(Cl)cc3)C2)cn1 (stereo not drawn)	17.5%	–	0.58 µM [falling, single point]
O=C1CN(C(=O)COC(=O)/C=C/c2ccc(S(=O)(=O)N3CCOCC3)cc2)c2ccccc2N1	-1.02%	–	–
Cc1ccc(-c2nnc(SCC(=O)Nc3ccc4c(c3)oc3ccccc34)n2C)c(Cl)c1	–	1.64 µM [rising, partial curve]	2.31 µM [rising, partial curve]
CCCNC(=O)N1CCC(c2ccc3c(c2)OCO3)CC1	-18.9%	–	32.6 µM [falling, single point]
CC1(C)C2CCC1(CS(=O)(=O)Nc1ccc(S(=O)(=O)N3CCCCC3)cc1)C(=O)C2 (stereo not drawn)	-16.4%	–	0.651 µM [falling, full curve]
COc1ccccc1CN1CC(C(=O)NCc2cccc(C)n2)CCC1=O (stereo not drawn)	-6.49%	–	–
